{"source": "patent US20240325335A1", "about": "“BIOLOGICALLY COMPATIBLE, BIOFILM DISRUPTING COMPOSITION AND METHODS” (priority 2023, published 2024)", "key": {"P. acnes": {"tested_on": "P. acnes", "assay": "Protocol #4 in-vitro time-kill (ASTM E2315)", "assay_type": "cell-based, Propionibacterium acnes", "procedure": "PURPOSE: This evaluation uses an in-vitro time-kill method to quantitatively assess the bactericidal activity of […] (10) formulations when challenged with P. acnes. An in vitro time-kill evaluation was conducted with various compositions based upon the methods described in the standardized ASTM […], Standard Guide for Assessment of Antimicrobial Activity Using a Time-Kill Procedure. […] A neutralization assay was performed on all the challenge organisms. Testing at pH 4.0."}, "[1]": {"tested_on": "Epidermophyton floccosum (ATCC 15693; TPPS 1243), planktonic", "assay": "P #5A planktonic antifungal testing", "assay_type": "cell-based", "settings": "all contact times incl. time zero; limit of 4.3-4.7 log growth"}, "[2]": {"tested_on": "Mycobacterium fortuitum (ATCC #6841) biofilm", "assay": "Protocol #6 mycobacterial biofilm in silicone tubing", "assay_type": "cell-based", "settings": "acid pH 5.0, contact time 5 hours", "procedure": "Two challenge microorganisms are separately evaluated: Brevundimonas diminuta (ATCC #19146) and Mycobacterium fortuitum (ATCC #6841). Biofilms of each challenge microorganism were formed in laboratory-created tubing loops consisting of a length of silicone tubing connected to a bottle of challenge microorganism in growth broth. The fluid within the tubing loop was recirculated for 10 to 14 days (Mycobacterium fortuitum) at a flowrate of 30 mL/minute while held at 36° C. (Mycobacterium fortuitum). Following completion of biofilm generation, the tubing loops were drained, and the tube lumen gently rinsed with phosphate-buffered water to remove planktonic (i.e., non-biofilm) challenge microorganisms. The tubing was then disinfected according to the manufacturer's Instructions for Use. At the completion of treatment, a portion of the silicone tubing was removed for analysis of biofilm concentration and imaging of biofilm coverage."}, "C. trachomatis": {"tested_on": "C. trachomatis", "settings": "Bergsson, '98; cited from earlier work"}}, "note": "Some results were stated once for a whole list of compounds, not compound by compound. For some assays here: At least one compound was matched to its structure with a doubt left.", "data": [{"smiles": "O=C(OOC(=O)c1ccccc1)c1ccccc1", "note": "[BPO, benzoyl peroxide]", "values": [{"measurement": "Log Reductions 0.5 (30 seconds)", "setting": "P. acnes; pH 4.0, 30 seconds exposure", "result": "< 0.5"}, {"measurement": "Log Reductions 5 min", "setting": "P. acnes; pH 4.0, 5 min exposure", "result": "< 0.5"}]}, {"smiles": "C=CCCCCCCCCC(=O)O", "note": "[UDA, undecylenic acid]", "values": [{"measurement": "LR against planktonic E. floccosum", "setting": "[1]", "result": "> 4"}, {"measurement": "LR", "setting": "[2]", "result": "> 5.24"}]}, {"smiles": "CCCCCCCCCC(=O)OCC(O)CO", "note": "(centres unmarked) [monocaprin]", "values": [{"measurement": "reduction in the infectivity titer / inactivation", "setting": "C. trachomatis", "result": "> 4", "unit": "log 10"}]}]}
